According to PMC10750215:
No constants are given. Whether binding was seen depends on the method and setting. Binding seen in cells or lysates may run through a third protein. Some binding calls cover weakened binding; strength is not graded here.

Chains of the proteins cited; added tags and fusions are not shown.
UniProt Q15672: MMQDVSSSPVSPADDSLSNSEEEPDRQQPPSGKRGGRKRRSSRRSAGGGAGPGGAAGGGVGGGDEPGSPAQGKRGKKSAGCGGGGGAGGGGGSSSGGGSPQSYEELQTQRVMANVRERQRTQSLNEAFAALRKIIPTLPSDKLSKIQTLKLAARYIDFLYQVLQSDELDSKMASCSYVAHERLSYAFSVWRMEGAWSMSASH
UniProt P25490: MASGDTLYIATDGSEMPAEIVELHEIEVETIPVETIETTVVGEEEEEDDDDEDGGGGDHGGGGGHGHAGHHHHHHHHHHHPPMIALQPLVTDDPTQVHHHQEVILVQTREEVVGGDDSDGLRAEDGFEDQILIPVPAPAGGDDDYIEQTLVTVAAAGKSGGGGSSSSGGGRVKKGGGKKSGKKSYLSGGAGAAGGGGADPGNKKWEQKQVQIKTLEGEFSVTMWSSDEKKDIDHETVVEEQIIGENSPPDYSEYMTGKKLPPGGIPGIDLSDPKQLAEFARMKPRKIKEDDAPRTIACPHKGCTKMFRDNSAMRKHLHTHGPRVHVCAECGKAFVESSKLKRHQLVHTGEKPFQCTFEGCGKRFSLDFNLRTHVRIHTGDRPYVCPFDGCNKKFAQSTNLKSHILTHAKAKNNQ

Experiments:
[1] = biological target: T1, Vitamin D binding protein (VDBP), endogenous (human (endogenous in MHCC-97H)) (UniProt P02774); assay: proximity ligation; PLA with VDBP and Twist1 in Twist1-negative cells (SNU-387) and Twist1-positive cells (SK-HEP-1), Matrigel 3D culture
T1 sequence: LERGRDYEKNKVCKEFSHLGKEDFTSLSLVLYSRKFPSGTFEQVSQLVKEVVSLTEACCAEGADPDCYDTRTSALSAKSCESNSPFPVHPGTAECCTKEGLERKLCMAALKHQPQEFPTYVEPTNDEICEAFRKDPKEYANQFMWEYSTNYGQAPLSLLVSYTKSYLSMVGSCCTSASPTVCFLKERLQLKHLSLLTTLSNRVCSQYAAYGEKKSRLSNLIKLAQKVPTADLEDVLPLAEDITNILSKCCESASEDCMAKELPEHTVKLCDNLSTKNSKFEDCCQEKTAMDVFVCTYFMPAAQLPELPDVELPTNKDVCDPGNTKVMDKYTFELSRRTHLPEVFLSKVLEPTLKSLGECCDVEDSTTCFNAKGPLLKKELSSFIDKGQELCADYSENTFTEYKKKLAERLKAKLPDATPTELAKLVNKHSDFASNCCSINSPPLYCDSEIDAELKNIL

[2] = biological target: T1, Vitamin D binding protein (VDBP), endogenous (human (endogenous in MHCC-97H)); assay: proximity ligation; PLA on liver tumour tissue of MHCC-97H-luc-tumor-bearing BALB/c-nude mice, with or without VD3 supplementation
[3] = biological target: T1, Vitamin D binding protein (VDBP), endogenous (human (endogenous in MHCC-97H)); assay: co-IP; MHCC-97H cells on Matrigel 3D culture; IP with anti-VDBP or with anti-Twist1, immunoblot for Twist1 and VDBP
[4] = biological target: T2, Vitamin D receptor (VDR), endogenous (human (endogenous in MHCC-97H)) (UniProt P11473); assay: co-IP; MHCC-97H cells, treated with VD at rising doses; IP with anti-VDR or with anti-YY1, immunoblot for VDR and YY1
T2 sequence: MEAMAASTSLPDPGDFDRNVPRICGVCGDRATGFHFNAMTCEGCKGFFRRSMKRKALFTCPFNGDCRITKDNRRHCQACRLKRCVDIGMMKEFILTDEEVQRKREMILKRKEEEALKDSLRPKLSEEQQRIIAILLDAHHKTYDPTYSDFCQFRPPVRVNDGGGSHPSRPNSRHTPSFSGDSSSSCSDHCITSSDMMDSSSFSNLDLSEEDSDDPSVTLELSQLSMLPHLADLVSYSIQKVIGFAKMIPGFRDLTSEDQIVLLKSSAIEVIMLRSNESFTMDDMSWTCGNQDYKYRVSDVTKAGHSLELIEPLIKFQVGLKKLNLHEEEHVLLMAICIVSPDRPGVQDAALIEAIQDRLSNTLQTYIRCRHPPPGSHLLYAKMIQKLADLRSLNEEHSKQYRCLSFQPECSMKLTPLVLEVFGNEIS

[5] = biological target: T2, Vitamin D receptor (VDR), endogenous (human (endogenous in MHCC-97H)); assay: proximity ligation; PLA on liver tumour tissue of MHCC-97H-luc-tumor-bearing BALB/c-nude mice, with or without VD3 supplementation
[6] = biological target: T2, Vitamin D receptor (VDR), endogenous (human (endogenous in MHCC-97H)); assay: proximity ligation; PLA with VDR and YY1 in MHCC-97H cells, Matrigel 3D culture, different concentrations of VD

Measured: binding

Twist1 (from UniProt Q15672 1-202)
binds: [1] | [2] | [3]

Yin Yang 1 (YY1) (from UniProt P25490 1-414)
binds: [4] | [5] | [6]
